Data as given in PubChem BioAssay AID1224826 (NIAID, 2016)
Here is an unselected part of about 17,000 reagents tested. In the full data, about 1,110 (6.6%) were called active. 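Active means lowered or raised reporter signal; replicate intensities are raw and not normalised per plate.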 The numbers tell different reagents against one gene apart. A reagent listed more than once was tested more than once; the source does not tell the runs apart. Not all columns of the deposit are shown. No sequences are given here.

Assay: 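Genes that change LPS-induced Tnf promoter activity in mouse macrophages when knocked down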 (primary screen)
System: RAW264.7 G9 macrophages from mouse bearing reporters for p65 (GFP) and the Tnf promoter (mCherry)
Reagents: siRNA pool against mouse genes, 100 nM
Time to read-out: 16 h of LPS stimulation, after 2 days of siRNA transfection
Treatment: bacterial lipopolysaccharide (Salmonella minnesota R595), 10 ng/ml
Measured: 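Nuclear mCherry signal of the Tnf promoter reporter measured by imaging after background removal, scaled to each plate median and turned into robust z-scores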
Direction: Tnf reporter robust z-score: higher = stronger Tnf promoter reporter signal after LPS
Call rule: 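Called active when robust z-score is at most -1.3, matching the median of the Tlr4 knock-down control, or over 3; control wells and wells with under 50 cells never active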
Meaning of the calls: active = Tnf reporter clearly lowered or raised; inactive = no clear change in Tnf reporter

gene	pool no.	Tnf reporter robust z-score	fewer than 50 cells in well	call
Ccdc87	1		fewer than 50 cells per well; well left out of calls	inactive
Ints15	1	0.11	enough cells in well	inactive
Avpr1b	1	0.88	enough cells in well	inactive
Avpr1b	1	1.46	enough cells in well	inactive
Vps26a	1	2.04	enough cells in well	inactive
Hic2	1	0.36	enough cells in well	inactive
Brd8dc	1		fewer than 50 cells per well; well left out of calls	inactive
Tmem167	1		fewer than 50 cells per well; well left out of calls	inactive
Rassf2	1	-0.03	enough cells in well	inactive
Or5d41	1	0.04	enough cells in well	inactive
Klc4	1	1.79	enough cells in well	inactive
BC051665	1	3.16	enough cells in well	active
Atp7b	1	-0.08	enough cells in well	inactive
Nucks1	1	0.06	enough cells in well	inactive

Already shown: 3 of the entries above.
gene	pool no.	Tnf reporter robust z-score	fewer than 50 cells in well	call
Tmem167	1		fewer than 50 cells per well; well left out of calls	inactive
Rassf2	1	-0.03	enough cells in well	inactive
Or5d41	1	0.04	enough cells in well	inactive

The listing continues:
gene	pool no.	Tnf reporter robust z-score	fewer than 50 cells in well	call
Pola2	1	0.59	enough cells in well	inactive
Lrg1	1	-0.64	enough cells in well	inactive
Vmn1r25	1	0.78	enough cells in well	inactive
Cdt1	1	1.34	enough cells in well	inactive
Ago1	1	2.14	enough cells in well	inactive
Ing5	1	1.2	enough cells in well	inactive
Cyp4f13	1	0.16	enough cells in well	inactive
Tut7	1		fewer than 50 cells per well; well left out of calls	inactive
Tut7	2	2.15	enough cells in well	inactive
Runx1	1	-1.05	enough cells in well	inactive
